Laboratory results from publication PMC7282669, “The hydrophobic effect characterises the thermodynamic signature of amyloid fibril growth” (PLoS Computational Biology, 2020).
No constants are given. Whether binding was seen depends on the method and setting. Some entries that bind do so weakly or less than the wild type.

How the values were obtained:
[1] = molecular target: T1, Bovine α-lactalbumin (bovine), P00711; test: chemical depolymerisation of amyloid fibrils (soluble protein by Bradford reagent); GndSCN; isodesmic linear polymerisation model; both purified; conditions: remark: other sources report otherwise
T1 chain: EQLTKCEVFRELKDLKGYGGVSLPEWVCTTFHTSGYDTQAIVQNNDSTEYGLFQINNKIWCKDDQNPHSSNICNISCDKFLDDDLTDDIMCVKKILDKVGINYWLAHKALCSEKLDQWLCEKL

[2] = molecular target: T1, Bovine α-lactalbumin (bovine), P00711; test: ITC; fibril elongation; monomer titrated into sonicated seed fibril suspension; VP-ITC; 10 mM HCl, 100 mM NaCl; monomer 100-350 μM; several temperatures; both purified; conditions: remark: other sources report otherwise

binding [1]: binds | binding [2]: binds
B1: Bovine α-lactalbumin, P00711 20-142 (protein)
chain: EQLTKCEVFRELKDLKGYGGVSLPEWVCTTFHTSGYDTQAIVQNNDSTEYGLFQINNKIWCKDDQNPHSSNICNISCDKFLDDDLTDDIMCVKKILDKVGINYWLAHKALCSEKLDQWLCEKL
